# Conditions: for final drug-to-lipid molar ratio: after loading; for loading efficiency into liposomes: drug:lipid molar ratio 1:4.6, 75 °C, 1 h; for efficiency of internal conversion to the water-soluble (-G^W) form: inside liposomes, after 1 h
Structure (SMILES),final drug-to-lipid molar ratio [%],loading efficiency into liposomes [%],efficiency of internal conversion to the water-soluble (-G^W) form [%]
"CCC1(O)C(=O)OCc2c1cc1n(c2=O)Cc2c-1nc1ccc(OCc3ccc(OC4OC(C(=O)O)C(O)C(O)C4O)c([N+](=O)[O-])c3)c3c1c2CCC3 [BQC-G^W, 5,6-dihydro-4H-benzo[de]quinoline-camptothecin-β-D-glucuronide]",12.1,56.2,99.6
"CCC1(O)C(=O)OCc2c1cc1n(c2=O)Cc2cc3c(NC(=O)OCc4ccc(OC5OC(C(=O)O)C(O)C(O)C5O)cc4)cccc3nc2-1 [9AC-G^W, 9-aminocamptothecin-β-D-glucuronide]",14.9,71.3,96.6
